Results deposited as PubChem BioAssay AID720505 (Drosophila RNAi Screening Center, 2013)
Purpose: 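Knock-downs that reduce calcium influx once internal stores are emptied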 (primary screen). Cell system: Drosophila S2R+ cells. Reagent: long dsRNA against Drosophila genes. Challenge: thapsigargin (2 µM) in calcium-free buffer to empty internal stores, then 2 mM calcium added back. Measured: 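Stores emptied by 2 µM thapsigargin without calcium, then 2 mM calcium re-added; fluo-4 fluorescence followed by FLIPR in 384-well plates, per-well averaged endpoint, raw; two screen passes, some wells retested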. Direction: calcium signal and retest calcium signal: higher = more calcium entry after store depletion. Hit rule: 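About 1500 genes called as lowering calcium entry, by varying amounts, judged against per-plate control wells with STIM1 as positive and Rho1 as negative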. Calls: active = called as lowering calcium entry; inactive = not called.
The deposit covers about 20,000 reagents; this is a random part of those that have a named target and a result. Of all reagents, about 2,100 (10%) are marked active. 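Raw plate signals without normalisation; calls rest on control-based scores that were not deposited; replicate 2 separates called from uncalled poorly.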 Names joined by + are all predicted targets of the reagent. Not stated in the record: the amount of reagent, the time to read-out.

The first 3 records as a preview:
| predicted target | DRSC id | calcium signal, replicate 1 | calcium signal, replicate 2 | retest calcium signal, replicate 1 | retest calcium signal, replicate 2 | Call |
| --- | --- | --- | --- | --- | --- | --- |
| Cyp6a18 | DRSC16632 | 186 | 139 | – | – | inactive |
| CG6356 | DRSC16026 | 202 | 149 | – | – | inactive |
| CG9416 | DRSC07339 | 113 | 105 | – | – | inactive |

Main list, repeating the preview:
| predicted target | DRSC id | calcium signal, replicate 1 | calcium signal, replicate 2 | retest calcium signal, replicate 1 | retest calcium signal, replicate 2 | Call |
| --- | --- | --- | --- | --- | --- | --- |
| Cyp6a18 | DRSC16632 | 186 | 139 | – | – | inactive |
| CG6356 | DRSC16026 | 202 | 149 | – | – | inactive |
| CG9416 | DRSC07339 | 113 | 105 | – | – | inactive |
| Cyp12b2 | DRSC07364 | 156 | 163 | – | – | inactive |
| CG34408 | DRSC17733 | 164 | 121 | – | – | inactive |
| CG34408 | DRSC21926 | 115 | 300 | – | – | inactive |
| CG34408 | DRSC23056 | 119 | 140 | – | – | inactive |
| Art8 | DRSC02530 | 124 | 144 | – | – | inactive |
| mwh | DRSC08382 | 67.4 | 115 | – | – | inactive |
| Wdr92 | DRSC10187 | 125 | 153 | – | – | inactive |
| CCHa2 | DRSC14835 | 151 | 196 | 10488 | 190 | inactive |
| yellow-d2 | DRSC04591 | 78.7 | 98.8 | – | – | inactive |
| CG15312 | DRSC18000 | 172 | 140 | – | – | inactive |
| shi | DRSC20373 | 179 | 171 | – | – | inactive |
| MBD-like | DRSC16996 | 147 | 125 | – | – | inactive |
| GckIII | DRSC15729 | 140 | 183 | – | – | inactive |
| CG5001 | DRSC00673 | 147 | 143 | – | – | inactive |
| Ppr-Y | DRSC20892 | 123 | 10480 | – | – | inactive |
| Ythdc1 | DRSC08141 | 108 | 88 | – | – | inactive |
| CG15011 | DRSC08464 | 94.1 | 167 | – | – | inactive |
| Tmem63 | DRSC06063 | 118 | 75.5 | – | – | inactive |
| ocm | DRSC04360 | 131 | 77 | – | – | inactive |
| CG13138 | DRSC02235 | 189 | 149 | – | – | inactive |
| GatA | DRSC16956 | 160 | 152 | – | – | inactive |
| RpS14b | DRSC18711 | 55.5 | 101 | – | – | active |
| CheA46a | DRSC05184 | 127 | 119 | – | – | inactive |
| CG2841 | DRSC17699 | 9411 | 156 | – | – | inactive |
| CG2841 | DRSC18824 | 67 | 119 | – | – | inactive |
| CG2841 | DRSC22106 | 145 | 79.2 | – | – | active |
| Sod1 | DRSC11286 | 101 | 87.5 | – | – | inactive |
| CG9799 | DRSC16567 | 103 | 100 | – | – | inactive |
| Hacd1 | DRSC02988 | 123 | 78.8 | – | – | inactive |
| lncRNA:CR41601 | DRSC22158 | 76 | 196 | – | – | inactive |
| DAT | DRSC07394 | 175 | 187 | – | – | inactive |
| U2af38 | DRSC00796 | 54.7 | 191 | – | – | active |
| Prosbeta5R2 | DRSC01617 | 210 | 111 | – | – | inactive |
| CG11226 | DRSC11639 | 72.1 | 105 | – | – | inactive |
| CG13800 (retired record) | DRSC08334 | 118 | 96.5 | – | – | inactive |
| CG12182 | DRSC08142 | 158 | 123 | – | – | inactive |
| Bap111 | DRSC18419 | 119 | 119 | 84.9 | 78 | inactive |
| oc | DRSC18808 | 246 | 98.1 | – | – | inactive |
| Syx17 | DRSC08591 | 99.2 | 115 | – | – | inactive |
| CG42662 + CG30080 | DRSC05571 | 114 | 122 | – | – | inactive |
| Dim1 | DRSC00563 | 90.6 | 78.7 | – | – | inactive |
| Mec2 | DRSC20054 | 171 | 131 | – | – | inactive |
| Nup44A | DRSC07248 | 182 | 216 | – | – | inactive |
| qm | DRSC11386 | 83.4 | 36.7 | – | – | inactive |
| Dys + snoRNA:Me18S-A1374 | DRSC16232 | 134 | 164 | – | – | inactive |
| CG42850 (retired record) | DRSC00872 | 136 | 155 | – | – | inactive |
| Rtc1 | DRSC20285 | 139 | 135 | – | – | inactive |
| CG6664 | DRSC10690 | 109 | 109 | – | – | inactive |
| CG3919 | DRSC10389 | 125 | 79.6 | – | – | inactive |
| slpr | DRSC18225 | 117 | 78.5 | – | – | inactive |
| slpr | DRSC23321 | 111 | 138 | – | – | inactive |
| CG13127 | DRSC02223 | 101 | 89.3 | – | – | inactive |
| CG11350 | DRSC08181 | 64.3 | 56.6 | 84.7 | 104 | inactive |
